Some of the results follow.
Columns and labels:
Assay in all cases: glycan array binding signal (z-score within array); higher = stronger binding
Conditions in all cases: glycan notation: IUPAC condensed, linker removed
[1] = biological target: Neu5Ac(a2-6)GlcNAc(b1-4)GlcNAc
Summary of the method: (§1)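 Negative Z-scores can be read as non-binding. The Z-score is calculated within each array and then averaged across arrays of one protein sequence at different concentrations or buffers and across linkers. Arrays, 3228 in all, were curated from the Consortium for Functional Glycomics database and kept only where the protein sequence was available.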

[2] = biological target: Neu5Ac(a2-6)GlcNAc(b1-4)GlcNAc(b1-4)GlcNAc
Summary of the method: as §1

[3] = biological target: Neu5Ac(a2-8)Neu5Ac
Summary of the method: as §1

[4] = biological target: Neu5Ac(a2-8)Neu5Ac(a2-3)Gal(b1-3)GalNAc(b1-4)[Neu5Ac(a2-3)]Gal(b1-4)Glc
Summary of the method: as §1

[5] = biological target: Neu5Ac(a2-8)Neu5Ac(a2-3)Gal(b1-3)GalNAc(b1-4)[Neu5Ac(a2-8)Neu5Ac(a2-3)]Gal(b1-4)Glc
Summary of the method: as §1

[6] = biological target: Neu5Ac(a2-8)Neu5Ac(a2-3)Gal(b1-4)Glc
Summary of the method: as §1

[7] = biological target: Neu5Ac(a2-8)Neu5Ac(a2-3)Gal(b1-4)GlcNAc
Summary of the method: as §1

[8] = biological target: Neu5Ac(a2-8)Neu5Ac(a2-3)[Gal(b1-3)GalNAc(b1-4)]Gal(b1-4)Glc
Summary of the method: as §1

[9] = biological target: Neu5Ac(a2-8)Neu5Ac(a2-3)[GalNAc(b1-4)]Gal(b1-4)Glc
Summary of the method: as §1

[10] = biological target: Neu5Ac(a2-8)Neu5Ac(a2-8)Neu5Ac
Summary of the method: as §1

[11] = biological target: Neu5Ac(a2-8)Neu5Ac(a2-8)Neu5Ac(a2-3)Gal(b1-4)Glc
Summary of the method: as §1

[12] = biological target: Neu5Ac(a2-8)Neu5Ac(a2-8)Neu5Ac(a2-3)[Gal(b1-3)GalNAc(b1-4)]Gal(b1-4)Glc
Summary of the method: as §1

[13] = biological target: Neu5Ac(a2-8)Neu5Ac(a2-8)Neu5Ac(a2-3)[GalNAc(b1-4)]Gal(b1-4)Glc
Summary of the method: as §1

[14] = biological target: Neu5Ac(a2-8)Neu5Ac(a2-8)Neu5Ac(a2-8)Neu5Ac(a2-3)[GalNAc(b1-4)]Gal(b1-4)Glc
Summary of the method: as §1

[15] = biological target: Neu5Ac(a2-8)Neu5Gc(a2-3)Gal(b1-4)GlcNAc
Summary of the method: as §1

[16] = biological target: Neu5Ac(b2-6)Gal(b1-4)GlcNAc
Summary of the method: as §1

[17] = biological target: Neu5Ac(b2-6)GalNAc
Summary of the method: as §1

[18] = biological target: Neu5Ac9Ac(a2-3)Gal(b1-3)GlcNAc
Summary of the method: as §1

[19] = biological target: Neu5Ac9Ac(a2-3)Gal(b1-4)GlcNAc
Summary of the method: as §1

[20] = biological target: Neu5Ac9Ac(a2-6)Gal(b1-4)GlcNAc
Summary of the method: as §1

[21] = biological target: Neu5Gc(a2-3)Gal(b1-3)GlcNAc
Summary of the method: as §1

[22] = biological target: Neu5Gc(a2-3)Gal(b1-3)[Fuc(a1-4)]GlcNAc
Summary of the method: as §1

[23] = biological target: Neu5Gc(a2-3)Gal(b1-4)Glc
Summary of the method: as §1

[24] = biological target: Neu5Gc(a2-3)Gal(b1-4)GlcNAc
Summary of the method: as §1

[25] = biological target: Neu5Gc(a2-3)Gal(b1-4)GlcNAc(b1-3)Gal(b1-4)GlcNAc(b1-2)Man(a1-3)[Neu5Gc(a2-3)Gal(b1-4)GlcNAc(b1-3)Gal(b1-4)GlcNAc(b1-2)Man(a1-6)]Man(b1-4)GlcNAc(b1-4)GlcNAc
Summary of the method: as §1

[26] = biological target: Neu5Gc(a2-3)Gal(b1-4)[Fuc(a1-3)]GlcNAc
Summary of the method: as §1

[27] = biological target: Neu5Gc(a2-6)Gal(b1-4)GlcNAc
Summary of the method: as §1

[28] = biological target: Neu5Gc(a2-6)GalNAc
Summary of the method: as §1

[29] = biological target: Neu5Gc(a2-8)Neu5Ac(a2-3)Gal(b1-4)GlcNAc
Summary of the method: as §1

[30] = biological target: Neu5Gc(a2-8)Neu5Gc(a2-3)Gal(b1-4)GlcNAc
Summary of the method: as §1

[31] = biological target: Neu5Gc(a2-8)Neu5Gc(a2-3)Gal(b1-4)GlcNAc(b1-3)Gal(b1-4)GlcNAc
Summary of the method: as §1

[32] = biological target: Neu5Gc(a2-8)Neu5Gc(a2-6)Gal(b1-4)GlcNAc
Summary of the method: as §1

[33] = biological target: Neu5Gc(b2-6)Gal(b1-4)GlcNAc
Summary of the method: as §1

B1: SUN4 (Saccharomyces cerevisiae), P53616 (protein)
chain: MGSSHHHHHHSSGLVPRGSHNGSIYGDLADFSGPYEKFEDGTIPCGQFPSGQGVIPISWLDEGGWSGVENTDTSTGGSCKEGSYCSYACQPGMSKTQWPSDQPSDGRSIGGLLCKDGYLYRSNTDTDYLCEWGVDAAYVVSELSNDVAICRTDYPGTENMVIPTYVQAGDSLPLTVVDQDTYYTWQGLKTSAQYYVNNAGISVEDACVWGSSSSGVGNWAPLNFGAGSSDGVAYLSLIPNPNNGNALNFNVKIVAADDSSTVNGECIYENGSFSGGSDGCTVSVTAGKAKFVLYN
In the case of B1, the “glycan array binding signal (z-score)” value [1] is reported as 0.049, the “glycan array binding signal (z-score)” value [2] is reported as -0.174 and the “glycan array binding signal (z-score)” value [3] is reported as 0.541. For the same binder, the “glycan array binding signal (z-score)” value [4] was -0.03, the “glycan array binding signal (z-score)” value [5] was 0.899 and the “glycan array binding signal (z-score)” value [6] was 0.051. The “glycan array binding signal (z-score)” value [7] was 0.123, the “glycan array binding signal (z-score)” value [8] was -0.086 and the “glycan array binding signal (z-score)” value [9] was -0.355. The “glycan array binding signal (z-score)” value [10] was 0.015, the “glycan array binding signal (z-score)” value [11] was 0.633 and the “glycan array binding signal (z-score)” value [12] was -0.179. For the same binder, the “glycan array binding signal (z-score)” value [13] was 0.133, the “glycan array binding signal (z-score)” value [14] was -0.426 and the “glycan array binding signal (z-score)” value [15] was 0.215. The “glycan array binding signal (z-score)” value [16] was -0.182, the “glycan array binding signal (z-score)” value [17] was -1.22 and the “glycan array binding signal (z-score)” value [18] was -0.945. The “glycan array binding signal (z-score)” value [19] was -0.609, the “glycan array binding signal (z-score)” value [20] was 0.082 and the “glycan array binding signal (z-score)” value [21] was -0.627. For the same binder, the “glycan array binding signal (z-score)” value [22] was 0.391, the “glycan array binding signal (z-score)” value [23] was -0.809 and the “glycan array binding signal (z-score)” value [24] was 1.01. For the same binder, the “glycan array binding signal (z-score)” value [25] was -0.115, the “glycan array binding signal (z-score)” value [26] was 0.118 and the “glycan array binding signal (z-score)” value [27] was -0.424. For the same binder, the “glycan array binding signal (z-score)” value [28] was -0.314, the “glycan array binding signal (z-score)” value [29] was -0.633 and the “glycan array binding signal (z-score)” value [30] was -0.415. For the same binder, the “glycan array binding signal (z-score)” value [31] was -0.172, the “glycan array binding signal (z-score)” value [32] was -0.222 and the “glycan array binding signal (z-score)” value [33] was -0.476.
